Laboratory results as given in PMC12637930.

Biological target: T1, CiLV-C p29 fused to NYFP or CYFP (BiFC construct) (CiLV-C) (UniProt Q1KZ58)
T1 sequence: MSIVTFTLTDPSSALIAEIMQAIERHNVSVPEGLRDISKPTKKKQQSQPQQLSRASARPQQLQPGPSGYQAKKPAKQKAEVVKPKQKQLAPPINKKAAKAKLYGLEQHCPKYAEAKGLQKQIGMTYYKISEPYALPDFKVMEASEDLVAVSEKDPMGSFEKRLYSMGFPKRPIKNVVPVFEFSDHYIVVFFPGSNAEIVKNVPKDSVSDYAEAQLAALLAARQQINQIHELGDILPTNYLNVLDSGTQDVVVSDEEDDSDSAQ
Experiment: split reporter; BiFC (split YFP) in N. benthamiana leaf cells, co-expression, fluorescence captured at 3 dpi

Substance | binding
PABP fused at its C-terminus to a split YFP fragment (BiFC construct) | binds
eIF4E fused at its C-terminus to a split YFP fragment (BiFC construct) | binds

No constants are given. Whether binding was seen depends on the method and setting. Binding seen in cells or lysates may run through a third protein. A result given as binding can be weak or reduced; the word gives no strength. Where a sequence is shown, tags or fusion partners need not be part of it.
